This passage reports log2 fold change results from the supplement of paper PMC10849652.

Protein sequences, listed by entry. Tags and fused reporters are not part of them. Lines headed by an entry give the natural chain unless they say otherwise; changes in a name come on top.
UniProt Q3ZCQ8: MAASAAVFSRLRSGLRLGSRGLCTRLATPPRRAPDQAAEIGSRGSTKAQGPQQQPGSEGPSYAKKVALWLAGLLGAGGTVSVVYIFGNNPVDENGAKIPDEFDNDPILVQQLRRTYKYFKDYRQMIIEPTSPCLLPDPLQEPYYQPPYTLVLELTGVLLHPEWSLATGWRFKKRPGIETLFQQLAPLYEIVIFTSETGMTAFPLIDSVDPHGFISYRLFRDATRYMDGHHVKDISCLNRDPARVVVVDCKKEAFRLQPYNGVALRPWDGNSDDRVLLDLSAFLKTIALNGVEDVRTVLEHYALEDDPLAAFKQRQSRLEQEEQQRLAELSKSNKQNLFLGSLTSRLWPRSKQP
UniProt Q13488, whole entry, looked up: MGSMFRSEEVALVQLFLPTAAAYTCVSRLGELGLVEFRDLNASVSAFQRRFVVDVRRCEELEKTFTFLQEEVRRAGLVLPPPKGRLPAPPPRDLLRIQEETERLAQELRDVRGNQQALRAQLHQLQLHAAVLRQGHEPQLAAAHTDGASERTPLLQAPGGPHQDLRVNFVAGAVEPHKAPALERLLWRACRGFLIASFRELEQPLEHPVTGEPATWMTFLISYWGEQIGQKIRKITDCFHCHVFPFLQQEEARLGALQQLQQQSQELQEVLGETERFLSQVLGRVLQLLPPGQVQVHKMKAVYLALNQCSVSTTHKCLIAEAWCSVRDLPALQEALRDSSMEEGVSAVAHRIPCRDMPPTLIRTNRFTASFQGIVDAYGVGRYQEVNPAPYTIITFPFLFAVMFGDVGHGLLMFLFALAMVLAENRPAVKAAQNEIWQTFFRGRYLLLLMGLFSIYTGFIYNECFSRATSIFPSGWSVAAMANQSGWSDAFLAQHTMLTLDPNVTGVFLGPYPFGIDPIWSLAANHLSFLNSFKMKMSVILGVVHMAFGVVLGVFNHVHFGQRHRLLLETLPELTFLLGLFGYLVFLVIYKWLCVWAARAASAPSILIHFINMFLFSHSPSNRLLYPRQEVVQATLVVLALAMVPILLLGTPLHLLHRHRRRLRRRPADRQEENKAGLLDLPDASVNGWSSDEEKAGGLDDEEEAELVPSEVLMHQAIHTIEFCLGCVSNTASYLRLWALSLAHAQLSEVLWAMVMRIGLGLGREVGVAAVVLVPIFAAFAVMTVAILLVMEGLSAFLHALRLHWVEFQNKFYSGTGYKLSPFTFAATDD
UniProt Q96MV1: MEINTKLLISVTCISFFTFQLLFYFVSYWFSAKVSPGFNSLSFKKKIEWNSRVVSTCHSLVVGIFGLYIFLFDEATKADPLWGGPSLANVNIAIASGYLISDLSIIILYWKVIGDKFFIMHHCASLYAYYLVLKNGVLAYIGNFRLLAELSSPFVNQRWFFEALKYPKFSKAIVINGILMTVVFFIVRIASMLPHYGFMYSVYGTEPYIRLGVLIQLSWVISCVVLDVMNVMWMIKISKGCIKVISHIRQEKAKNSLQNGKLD
UniProt Q6I9Y2: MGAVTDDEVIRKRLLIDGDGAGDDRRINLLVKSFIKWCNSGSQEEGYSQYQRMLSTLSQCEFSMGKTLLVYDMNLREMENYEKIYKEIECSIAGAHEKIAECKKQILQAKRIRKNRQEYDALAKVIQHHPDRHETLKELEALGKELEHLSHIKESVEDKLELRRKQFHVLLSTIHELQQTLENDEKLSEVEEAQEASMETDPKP
UniProt O43493: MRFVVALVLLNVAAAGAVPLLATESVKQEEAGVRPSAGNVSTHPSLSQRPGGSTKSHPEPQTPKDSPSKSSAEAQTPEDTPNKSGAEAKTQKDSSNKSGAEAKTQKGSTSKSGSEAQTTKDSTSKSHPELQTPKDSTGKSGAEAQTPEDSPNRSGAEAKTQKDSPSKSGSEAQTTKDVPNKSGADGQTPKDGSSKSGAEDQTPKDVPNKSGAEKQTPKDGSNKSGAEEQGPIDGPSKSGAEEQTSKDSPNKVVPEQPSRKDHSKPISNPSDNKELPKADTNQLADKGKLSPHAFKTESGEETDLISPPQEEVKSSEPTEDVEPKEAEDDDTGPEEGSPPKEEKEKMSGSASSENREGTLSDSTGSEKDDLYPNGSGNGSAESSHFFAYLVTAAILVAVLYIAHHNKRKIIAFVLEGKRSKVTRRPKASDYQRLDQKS
UniProt P02787, whole entry, looked up: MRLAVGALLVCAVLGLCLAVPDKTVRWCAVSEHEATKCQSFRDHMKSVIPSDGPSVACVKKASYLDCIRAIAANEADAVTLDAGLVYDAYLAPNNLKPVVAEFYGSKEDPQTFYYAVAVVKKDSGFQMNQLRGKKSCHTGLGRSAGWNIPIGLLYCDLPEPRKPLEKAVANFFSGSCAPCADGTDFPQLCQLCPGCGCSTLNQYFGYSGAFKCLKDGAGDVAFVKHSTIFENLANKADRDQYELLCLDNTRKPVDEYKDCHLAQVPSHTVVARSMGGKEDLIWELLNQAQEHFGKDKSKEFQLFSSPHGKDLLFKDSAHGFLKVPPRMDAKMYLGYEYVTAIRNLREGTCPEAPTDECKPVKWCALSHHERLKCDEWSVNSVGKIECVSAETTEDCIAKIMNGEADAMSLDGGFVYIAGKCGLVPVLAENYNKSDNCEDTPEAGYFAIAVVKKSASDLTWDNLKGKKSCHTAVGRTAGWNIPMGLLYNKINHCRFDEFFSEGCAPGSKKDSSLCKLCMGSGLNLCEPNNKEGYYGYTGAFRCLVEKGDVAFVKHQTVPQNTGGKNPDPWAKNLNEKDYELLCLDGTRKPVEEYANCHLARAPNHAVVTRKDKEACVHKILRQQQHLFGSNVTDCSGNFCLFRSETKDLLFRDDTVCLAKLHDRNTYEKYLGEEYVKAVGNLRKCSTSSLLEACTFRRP
UniProt Q15554: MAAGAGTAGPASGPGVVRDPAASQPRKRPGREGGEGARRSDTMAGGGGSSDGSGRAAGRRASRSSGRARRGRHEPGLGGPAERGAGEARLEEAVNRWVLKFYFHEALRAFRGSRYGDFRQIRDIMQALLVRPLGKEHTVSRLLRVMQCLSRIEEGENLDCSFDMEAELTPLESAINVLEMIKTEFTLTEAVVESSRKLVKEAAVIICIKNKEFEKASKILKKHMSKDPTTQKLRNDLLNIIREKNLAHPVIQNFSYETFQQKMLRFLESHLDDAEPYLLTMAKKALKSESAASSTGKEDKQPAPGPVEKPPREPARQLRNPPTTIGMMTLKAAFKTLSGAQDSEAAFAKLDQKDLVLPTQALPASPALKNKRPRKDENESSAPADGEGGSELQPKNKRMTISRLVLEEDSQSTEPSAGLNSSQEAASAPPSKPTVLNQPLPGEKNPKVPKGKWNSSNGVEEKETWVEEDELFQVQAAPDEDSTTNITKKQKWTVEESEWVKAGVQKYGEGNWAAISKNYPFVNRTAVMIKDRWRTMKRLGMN
UniProt Q9NPL8: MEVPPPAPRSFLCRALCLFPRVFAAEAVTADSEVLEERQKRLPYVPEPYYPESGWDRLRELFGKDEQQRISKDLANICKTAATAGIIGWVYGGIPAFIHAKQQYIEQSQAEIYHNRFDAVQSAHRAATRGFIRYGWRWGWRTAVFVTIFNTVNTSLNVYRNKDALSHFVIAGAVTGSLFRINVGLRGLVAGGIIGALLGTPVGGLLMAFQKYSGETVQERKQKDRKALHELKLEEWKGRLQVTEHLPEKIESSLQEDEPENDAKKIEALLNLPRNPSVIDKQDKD
UniProt O60907: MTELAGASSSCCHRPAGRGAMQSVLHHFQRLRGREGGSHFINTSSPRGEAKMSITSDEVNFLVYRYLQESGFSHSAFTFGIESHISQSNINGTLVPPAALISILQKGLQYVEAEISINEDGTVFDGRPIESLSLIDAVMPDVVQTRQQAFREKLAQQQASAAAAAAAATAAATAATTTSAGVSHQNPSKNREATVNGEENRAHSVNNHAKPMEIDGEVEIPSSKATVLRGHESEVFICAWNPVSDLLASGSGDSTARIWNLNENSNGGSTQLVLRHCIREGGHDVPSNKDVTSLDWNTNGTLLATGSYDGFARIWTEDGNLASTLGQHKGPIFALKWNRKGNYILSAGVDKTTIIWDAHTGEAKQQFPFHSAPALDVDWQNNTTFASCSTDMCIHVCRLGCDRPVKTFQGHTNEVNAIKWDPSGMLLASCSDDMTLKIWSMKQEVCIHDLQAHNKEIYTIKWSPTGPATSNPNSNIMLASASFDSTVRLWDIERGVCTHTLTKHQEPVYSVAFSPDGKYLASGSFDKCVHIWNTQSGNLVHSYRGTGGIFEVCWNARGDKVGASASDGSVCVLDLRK
UniProt Q12788: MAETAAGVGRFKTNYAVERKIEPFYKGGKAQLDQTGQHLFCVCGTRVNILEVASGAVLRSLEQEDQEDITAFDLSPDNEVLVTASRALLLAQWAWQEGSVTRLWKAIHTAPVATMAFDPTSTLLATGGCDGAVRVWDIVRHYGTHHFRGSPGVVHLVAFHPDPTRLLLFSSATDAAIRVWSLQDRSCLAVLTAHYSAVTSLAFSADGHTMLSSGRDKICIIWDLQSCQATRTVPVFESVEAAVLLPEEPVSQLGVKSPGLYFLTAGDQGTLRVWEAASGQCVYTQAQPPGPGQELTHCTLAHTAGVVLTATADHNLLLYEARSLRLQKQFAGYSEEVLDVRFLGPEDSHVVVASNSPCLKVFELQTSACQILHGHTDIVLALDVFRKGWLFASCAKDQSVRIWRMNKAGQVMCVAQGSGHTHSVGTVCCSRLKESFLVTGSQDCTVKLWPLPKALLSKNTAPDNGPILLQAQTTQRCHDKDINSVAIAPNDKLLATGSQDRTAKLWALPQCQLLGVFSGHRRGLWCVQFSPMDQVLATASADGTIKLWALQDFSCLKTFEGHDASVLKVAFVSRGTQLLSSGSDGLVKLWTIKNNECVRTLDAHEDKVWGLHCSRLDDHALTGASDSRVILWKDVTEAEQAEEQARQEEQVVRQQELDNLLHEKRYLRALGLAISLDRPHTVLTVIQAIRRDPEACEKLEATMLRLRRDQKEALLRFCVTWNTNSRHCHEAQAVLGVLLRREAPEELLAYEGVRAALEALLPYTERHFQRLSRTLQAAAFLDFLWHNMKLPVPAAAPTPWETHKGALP
UniProt Q9Y5J9: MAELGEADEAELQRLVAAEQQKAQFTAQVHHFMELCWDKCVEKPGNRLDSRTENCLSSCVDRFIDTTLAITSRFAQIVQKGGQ
UniProt P21980: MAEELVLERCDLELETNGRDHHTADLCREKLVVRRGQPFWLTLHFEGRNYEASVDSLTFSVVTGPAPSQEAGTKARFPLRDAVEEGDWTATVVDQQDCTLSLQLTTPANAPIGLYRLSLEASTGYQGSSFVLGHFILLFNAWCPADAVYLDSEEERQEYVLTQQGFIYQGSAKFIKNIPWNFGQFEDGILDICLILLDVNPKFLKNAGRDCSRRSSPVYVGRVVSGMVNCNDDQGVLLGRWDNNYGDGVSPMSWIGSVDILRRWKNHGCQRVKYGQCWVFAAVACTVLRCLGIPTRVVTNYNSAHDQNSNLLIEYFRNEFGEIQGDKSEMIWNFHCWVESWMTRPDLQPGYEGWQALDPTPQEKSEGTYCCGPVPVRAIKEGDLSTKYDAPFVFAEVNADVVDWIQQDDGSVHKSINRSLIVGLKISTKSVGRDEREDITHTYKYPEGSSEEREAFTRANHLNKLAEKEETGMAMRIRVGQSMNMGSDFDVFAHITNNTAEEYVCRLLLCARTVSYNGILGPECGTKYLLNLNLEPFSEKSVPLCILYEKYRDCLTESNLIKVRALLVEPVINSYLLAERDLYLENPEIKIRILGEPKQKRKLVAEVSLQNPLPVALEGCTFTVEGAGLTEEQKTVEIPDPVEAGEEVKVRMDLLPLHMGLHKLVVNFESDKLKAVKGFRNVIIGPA
UniProt Q9BZK7: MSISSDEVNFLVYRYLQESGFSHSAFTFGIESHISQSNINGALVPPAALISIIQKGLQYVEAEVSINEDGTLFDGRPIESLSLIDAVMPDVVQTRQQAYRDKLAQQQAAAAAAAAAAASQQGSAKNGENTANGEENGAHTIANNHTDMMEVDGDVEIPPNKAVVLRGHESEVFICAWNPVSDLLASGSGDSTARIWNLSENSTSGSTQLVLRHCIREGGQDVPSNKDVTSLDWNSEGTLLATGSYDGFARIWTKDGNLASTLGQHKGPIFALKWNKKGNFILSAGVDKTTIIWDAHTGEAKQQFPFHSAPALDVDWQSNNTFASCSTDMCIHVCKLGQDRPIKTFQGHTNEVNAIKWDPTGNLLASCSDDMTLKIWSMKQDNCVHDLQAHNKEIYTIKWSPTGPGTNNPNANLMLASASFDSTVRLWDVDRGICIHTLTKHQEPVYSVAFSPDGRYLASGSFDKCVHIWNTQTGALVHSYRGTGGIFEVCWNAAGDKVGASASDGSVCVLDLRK
UniProt Q96BS2: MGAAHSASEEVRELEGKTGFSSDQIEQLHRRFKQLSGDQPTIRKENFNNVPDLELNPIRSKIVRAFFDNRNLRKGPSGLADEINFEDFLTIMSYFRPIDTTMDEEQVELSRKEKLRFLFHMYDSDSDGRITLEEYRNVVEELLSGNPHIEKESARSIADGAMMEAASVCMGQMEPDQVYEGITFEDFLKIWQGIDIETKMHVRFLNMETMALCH

This is one part of the list.

Compound in the first assay: C1CN(CCC1(CC2=CC=C(C=C2)Cl)N)C3=NC=NC4=C3C=CN4
The experiment in a line: log2 fold change, soluble protein after heating vs DMSO (PISA); higher = thermal stabilisation; K562 cells, 10 uM, 30 min; active = over 0.2 and 3.5 SD of the protein, either way, in both replicates (recomputed). The essentials: (§1)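 Soluble protein was defined as the supernatant after 21,000xg for 90 min. It came from K562 cells at 2×10^6 cells/mL given 10 μM compound for 30 min, heated in aliquots for 3 min across 48°C-58°C, pooled, and extracted in PBS with 0.5% NP-40 at 4°C, and was quantified by TMTpro 16plex LC-MS/MS with equalised channel sums. Thermal stability against control samples, from duplicates, is reported as log2 fold change.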
As for TJAP1 (UniProt Q5JTD0), the log2 fold change is inactive: -0.064.
Same read-out and setting: as for TCEA1 (UniProt P23193), the figure is inactive: 0.076; as for TIMM50 isoform 2 (UniProt Q3ZCQ8), inactive: 0.074; as for THUMPD1 (UniProt Q9NXG2), inactive: 0.019.
With THBS1 (UniProt P07996), the log2 fold change is inactive: 0.11.
Still for that read-out and setting: in the case of TCIRG1 (UniProt Q13488) it was inactive: -0.24; in that of TCF3 (UniProt P15923), inactive: -0.053.
For the target THOC1 (UniProt Q96FV9), the log2 fold change was inactive: -0.099.
For the target THOC2 (UniProt Q8NI27), the log2 fold change was inactive: -0.043.
As to THNSL1 (UniProt Q8IYQ7), the log2 fold change is inactive: 0.077.
Still for that read-out and setting: as for TBC1D22B (UniProt Q9NU19), the figure is inactive: -0.024.
On the same count and under the same terms, in the case of TLCD4 (UniProt Q96MV1) it was inactive: 0.092; in that of THOC7 (UniProt Q6I9Y2), inactive: -0.037.
The same measure, in the same setting: as for TKFC (UniProt Q3LXA3), the figure is inactive: 0.026.
Take TGFBR3 (UniProt Q03167): the log2 fold change was inactive: 0.046.
Same read-out and setting: in the case of TKT isoform 2 (UniProt P29401) it was inactive: 0.059; in that of TDRKH (UniProt Q9Y2W6), inactive: -0.059.
As to TGOLN2 isoform 7 (UniProt O43493), the log2 fold change is inactive: 0.062.
Regarding TBCC (UniProt Q15814), the log2 fold change was inactive: -0.001.
Consider TF (UniProt P02787), for which the log2 fold change is inactive: 0.304.
With TDP2 isoform 2 (UniProt O95551), the log2 fold change is inactive: -0.028.
As for TERF2 (UniProt Q15554), the log2 fold change is inactive: 0.025.
In the case of THOC6 (UniProt Q86W42), the log2 fold change is inactive: 0.009.
As for TBCB (UniProt Q99426), the log2 fold change is inactive: -0.041.
On the same count and under the same terms, in the case of TIMMDC1 (UniProt Q9NPL8) it was inactive: 0.07; in that of TBCE (UniProt Q15813), inactive: -0.172.
Same read-out and setting: in the case of TK2 isoform 6 (UniProt O00142) it was inactive: 0.014; in that of TIMM23 (UniProt O14925), inactive: 0.057.
On the same count and under the same terms, as for TET1 (UniProt Q8NFU7), the figure is inactive: 0.136; as for TCP1 (UniProt P17987), inactive: 0.011; as for TBL1X (UniProt O60907), inactive: 0.017.
As to TFB1M (UniProt Q8WVM0), the log2 fold change is inactive: -0.174.
On to TBL3 (UniProt Q12788), for which the log2 fold change was inactive: 0.046.
On the same count and under the same terms, as for TIMM8B (UniProt Q9Y5J9), the figure is inactive: -0.1.
TBC1D4 (UniProt O60343): the log2 fold change was inactive: 0.004.
Still for that read-out and setting: in the case of TGM2 (UniProt P21980) it was inactive: 0.083.
On the same count and under the same terms, in the case of TBL1XR1 (UniProt Q9BZK7) it was inactive: 0.026; in that of TESC (UniProt Q96BS2), inactive: -0.01.
Same read-out and setting: in the case of TCF12 isoform 3 (UniProt Q99081) it was inactive: -0.013.

Compound in another assay: C1COCCN1CCN2C3=CC=CC=C3N=C2NC(=O)C4=CC(=CC=C4)[N+](=O)[O-] [IRAK-1-4 Inhibitor I]
Described as above. The essentials: as §1
On to TJAP1 (UniProt Q5JTD0), for which the log2 fold change is inactive: -0.011.
On to TCEA1 (UniProt P23193), for which the log2 fold change is inactive: 0.041.
On the same count and under the same terms, as for TIMM50 isoform 2 (UniProt Q3ZCQ8), the figure is inactive: 0.036; as for THUMPD1 (UniProt Q9NXG2), inactive: 0.019; as for THBS1 (UniProt P07996), inactive: 0.
Same read-out and setting: as for TCIRG1 (UniProt Q13488), the figure is inactive: -0.058; as for TCF3 (UniProt P15923), inactive: 0.03.
On the same count and under the same terms, as for THOC1 (UniProt Q96FV9), the figure is inactive: -0.089; as for THOC2 (UniProt Q8NI27), inactive: -0.085; as for THNSL1 (UniProt Q8IYQ7), inactive: 0.033.
TBC1D22B (UniProt Q9NU19): the log2 fold change was inactive: -0.029.
In the case of TLCD4 (UniProt Q96MV1), the log2 fold change is inactive: -0.017.
Consider THOC7 (UniProt Q6I9Y2), for which the log2 fold change is inactive: -0.069.
For the target TKFC (UniProt Q3LXA3), the log2 fold change was inactive: 0.013.
As to TGFBR3 (UniProt Q03167), the log2 fold change was inactive: -0.007.
With TKT isoform 2 (UniProt P29401), the log2 fold change was inactive: 0.035.
TDRKH (UniProt Q9Y2W6): the log2 fold change is inactive: 0.032.
Still for that read-out and setting: as for TGOLN2 isoform 7 (UniProt O43493), the figure is inactive: 0.028.
Turning to TBCC (UniProt Q15814), the log2 fold change is inactive: 0.045.
As to TF (UniProt P02787), the log2 fold change is inactive: 0.184.
Still for that read-out and setting: as for TDP2 isoform 2 (UniProt O95551), the figure is inactive: 0.045; as for TERF2 (UniProt Q15554), inactive: -0.158.
On to THOC6 (UniProt Q86W42), for which the log2 fold change is inactive: 0.016.
Same read-out and setting: in the case of TBCB (UniProt Q99426) it was inactive: 0.001; in that of TIMMDC1 (UniProt Q9NPL8), inactive: 0.029.
Consider TBCE (UniProt Q15813), for which the log2 fold change was inactive: -0.158.
On to TK2 isoform 6 (UniProt O00142), for which the log2 fold change was inactive: -0.07.
On the same count and under the same terms, as for TIMM23 (UniProt O14925), the figure is inactive: 0.009; as for TET1 (UniProt Q8NFU7), inactive: -0.001; as for TCP1 (UniProt P17987), inactive: 0.009.
Take TBL1X (UniProt O60907): the log2 fold change is inactive: 0.029.
In the case of TFB1M (UniProt Q8WVM0), the log2 fold change was inactive: -0.147.
Turning to TBL3 (UniProt Q12788), the log2 fold change was inactive: -0.025.
The same measure, in the same setting: in the case of TIMM8B (UniProt Q9Y5J9) it was inactive: -0.031; in that of TBC1D4 (UniProt O60343), inactive: 0.09; in that of TGM2 (UniProt P21980), inactive: 0.026.
Still for that read-out and setting: in the case of TBL1XR1 (UniProt Q9BZK7) it was inactive: 0.015; in that of TESC (UniProt Q96BS2), inactive: -0.01; in that of TCF12 isoform 3 (UniProt Q99081), inactive: 0.001.
